Assay [1] deals with GluN2B subunit, R519Q disease-associated variant (human GRIN2B) (human) (UniProt Q13224). Nature of the assay: co-IP.
For assay [2], the target named is GluN2B subunit, R519Q variant with F1307A disruption of the LIR motif (human GRIN2B) (human) (UniProt Q13224). Put plainly: co-IP.

These are yes or no findings as the source states them, for the method shown. In cells and extracts the contact can be indirect. Some entries that bind do so weakly or less than the wild type.

Take Beclin 1 (from UniProt Q14457 1-450): the binding result in assay [1] and in assay [2] was “binds” throughout.

B1: CCPG1 (ER-phagy receptor) (protein, UniProt Q9ULG6 1-757)
chain: MSENSSDSDSSCGWTVISHEGSDIEMLNSVTPTDSCEPAPECSSLEQEELQALQIEQGESSQNGTVLMEETAYPALEETSSTIEAEEQKIPEDSIYIGTASDDSDIVTLEPPKLEEIGNQEVVIVEEAQSSEDFNMGSSSSSQYTFCQPETVFSSQPSDDESSSDETSNQPSPAFRRRRARKKTVSASESEDRLVAEQETEPSKELSKRQFSSGLNKCVILALVIAISMGFGHFYGTIQIQKRQQLVRKIHEDELNDMKDYLSQCQQEQESFIDYKSLKENLARCWTLTEAEKMSFETQKTNLATENQYLRVSLEKEEKALSSLQEELNKLREQIRILEDKGTSTELVKENQKLKQHLEEEKQKKHSFLSQRETLLTEAKMLKRELERERLVTTALRGELQQLSGSQLHGKSDSPNVYTEKKEIAILRERLTELERKLTFEQQRSDLWERLYVEAKDQNGKQGTDGKKKGGRGSHRAKNKSKETFLGSVKETFDAMKNSTKEFVRHHKEKIKQAKEAVKENLKKFSDSVKSTFRHFKDTTKNIFDEKGNKRFGATKEAAEKPRTVFSDYLHPQYKAPTENHHNRGPTMQNDGRKEKPVHFKEFRKNTNSKKCSPGHDCRENSHSFRKACSGVFDCAQQESMSLFNTVVNPIRMDEFRQIIQRYMLKELDTFCHWNELDQFINKFFLNGVFIHDQKLFTDFVNDVKDYLRNMKEYEVDNDGVFEKLDEYIYRHFFGHTFSPPYGPRSVYIKPCHYSSL
On to B1, for which the binding result in assay [1] and in assay [2] was “binds” each time.

These data come from article doi:10.1101/2025.01.12.632651.
